Assay results reported in the supplement of paper PMC10849652.
This is one part of the list. Residues, ends and D or L forms follow the SMILES beside them. *: point of attachment. Cbz = O=C(OCc1ccccc1)*

The chains behind the UniProt entries cited, without tags or fusion partners. Where a name states a change or a piece, a line headed by the entry shows the natural chain unless it says otherwise.
UniProt P54802: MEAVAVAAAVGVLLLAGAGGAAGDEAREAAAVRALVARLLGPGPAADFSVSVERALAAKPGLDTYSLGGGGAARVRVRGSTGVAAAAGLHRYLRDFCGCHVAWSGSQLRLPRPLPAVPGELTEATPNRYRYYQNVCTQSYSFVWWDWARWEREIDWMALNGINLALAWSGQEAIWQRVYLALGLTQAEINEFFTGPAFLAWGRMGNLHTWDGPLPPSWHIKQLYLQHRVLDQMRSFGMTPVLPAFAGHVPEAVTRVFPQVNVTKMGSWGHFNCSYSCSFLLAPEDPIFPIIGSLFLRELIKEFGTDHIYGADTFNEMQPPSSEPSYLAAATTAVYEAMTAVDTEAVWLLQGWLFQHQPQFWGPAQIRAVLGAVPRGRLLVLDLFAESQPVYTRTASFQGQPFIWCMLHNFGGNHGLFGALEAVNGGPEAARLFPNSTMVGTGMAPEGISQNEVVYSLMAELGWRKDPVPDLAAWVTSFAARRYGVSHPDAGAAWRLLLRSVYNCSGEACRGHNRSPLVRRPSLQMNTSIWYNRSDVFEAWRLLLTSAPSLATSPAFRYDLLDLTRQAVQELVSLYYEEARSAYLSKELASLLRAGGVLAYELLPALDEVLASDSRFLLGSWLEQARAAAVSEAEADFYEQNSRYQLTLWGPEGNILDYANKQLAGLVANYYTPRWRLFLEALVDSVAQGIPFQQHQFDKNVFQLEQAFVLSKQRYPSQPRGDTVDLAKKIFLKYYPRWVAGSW
UniProt P52849: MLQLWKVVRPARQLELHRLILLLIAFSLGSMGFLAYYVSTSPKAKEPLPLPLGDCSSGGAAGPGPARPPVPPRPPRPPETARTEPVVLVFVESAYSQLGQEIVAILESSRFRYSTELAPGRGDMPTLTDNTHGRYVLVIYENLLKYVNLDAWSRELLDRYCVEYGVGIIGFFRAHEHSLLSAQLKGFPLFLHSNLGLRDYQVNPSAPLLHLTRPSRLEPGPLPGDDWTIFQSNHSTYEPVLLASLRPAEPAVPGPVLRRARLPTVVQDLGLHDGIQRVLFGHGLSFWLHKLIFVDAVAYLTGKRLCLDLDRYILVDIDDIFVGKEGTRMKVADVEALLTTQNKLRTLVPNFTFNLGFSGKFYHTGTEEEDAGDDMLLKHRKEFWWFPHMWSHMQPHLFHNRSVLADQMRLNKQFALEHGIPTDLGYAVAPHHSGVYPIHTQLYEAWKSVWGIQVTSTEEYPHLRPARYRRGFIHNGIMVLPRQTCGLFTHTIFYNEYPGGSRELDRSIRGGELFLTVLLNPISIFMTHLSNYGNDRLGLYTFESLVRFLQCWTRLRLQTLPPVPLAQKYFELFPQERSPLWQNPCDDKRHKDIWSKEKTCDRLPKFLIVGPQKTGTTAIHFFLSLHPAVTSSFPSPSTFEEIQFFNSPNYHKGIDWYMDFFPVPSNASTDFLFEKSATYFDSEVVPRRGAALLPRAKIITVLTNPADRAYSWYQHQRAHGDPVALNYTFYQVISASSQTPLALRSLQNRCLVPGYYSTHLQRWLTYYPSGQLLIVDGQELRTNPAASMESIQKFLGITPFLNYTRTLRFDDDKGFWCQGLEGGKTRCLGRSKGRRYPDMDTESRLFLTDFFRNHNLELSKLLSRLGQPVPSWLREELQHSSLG
UniProt O43920, whole entry, looked up: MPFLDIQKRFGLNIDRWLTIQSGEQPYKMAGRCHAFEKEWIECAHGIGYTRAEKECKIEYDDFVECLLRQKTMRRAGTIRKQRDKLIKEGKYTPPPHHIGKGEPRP
UniProt P19338, whole entry, looked up: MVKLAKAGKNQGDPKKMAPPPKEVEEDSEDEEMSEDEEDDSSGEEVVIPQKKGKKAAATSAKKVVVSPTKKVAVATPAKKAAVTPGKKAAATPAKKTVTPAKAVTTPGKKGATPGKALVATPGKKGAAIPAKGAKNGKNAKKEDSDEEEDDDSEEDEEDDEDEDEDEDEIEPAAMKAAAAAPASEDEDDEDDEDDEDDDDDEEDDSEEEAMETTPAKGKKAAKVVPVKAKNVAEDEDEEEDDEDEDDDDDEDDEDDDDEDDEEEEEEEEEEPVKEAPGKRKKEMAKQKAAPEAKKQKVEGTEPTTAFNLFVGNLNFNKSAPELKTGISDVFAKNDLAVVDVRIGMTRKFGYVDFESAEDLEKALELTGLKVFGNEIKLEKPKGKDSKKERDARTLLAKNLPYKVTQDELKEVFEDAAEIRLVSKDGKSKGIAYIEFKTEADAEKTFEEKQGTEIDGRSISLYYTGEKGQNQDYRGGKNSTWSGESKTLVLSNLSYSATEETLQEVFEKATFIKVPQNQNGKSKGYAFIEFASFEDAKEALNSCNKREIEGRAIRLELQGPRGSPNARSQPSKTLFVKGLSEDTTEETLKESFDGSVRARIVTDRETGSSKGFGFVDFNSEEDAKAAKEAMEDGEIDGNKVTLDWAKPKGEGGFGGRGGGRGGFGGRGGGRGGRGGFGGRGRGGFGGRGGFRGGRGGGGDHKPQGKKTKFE
UniProt Q9UJ70, whole entry, looked up: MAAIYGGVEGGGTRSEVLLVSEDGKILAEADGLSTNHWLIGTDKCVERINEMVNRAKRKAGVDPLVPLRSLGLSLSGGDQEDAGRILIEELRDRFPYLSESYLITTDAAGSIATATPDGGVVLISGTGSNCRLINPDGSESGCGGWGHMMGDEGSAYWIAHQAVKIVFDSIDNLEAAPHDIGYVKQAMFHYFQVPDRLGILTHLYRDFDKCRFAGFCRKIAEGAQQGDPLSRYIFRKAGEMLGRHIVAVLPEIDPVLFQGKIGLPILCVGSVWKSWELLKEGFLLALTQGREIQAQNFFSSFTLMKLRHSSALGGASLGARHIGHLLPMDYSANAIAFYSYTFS
UniProt Q9BPX3, whole entry, looked up: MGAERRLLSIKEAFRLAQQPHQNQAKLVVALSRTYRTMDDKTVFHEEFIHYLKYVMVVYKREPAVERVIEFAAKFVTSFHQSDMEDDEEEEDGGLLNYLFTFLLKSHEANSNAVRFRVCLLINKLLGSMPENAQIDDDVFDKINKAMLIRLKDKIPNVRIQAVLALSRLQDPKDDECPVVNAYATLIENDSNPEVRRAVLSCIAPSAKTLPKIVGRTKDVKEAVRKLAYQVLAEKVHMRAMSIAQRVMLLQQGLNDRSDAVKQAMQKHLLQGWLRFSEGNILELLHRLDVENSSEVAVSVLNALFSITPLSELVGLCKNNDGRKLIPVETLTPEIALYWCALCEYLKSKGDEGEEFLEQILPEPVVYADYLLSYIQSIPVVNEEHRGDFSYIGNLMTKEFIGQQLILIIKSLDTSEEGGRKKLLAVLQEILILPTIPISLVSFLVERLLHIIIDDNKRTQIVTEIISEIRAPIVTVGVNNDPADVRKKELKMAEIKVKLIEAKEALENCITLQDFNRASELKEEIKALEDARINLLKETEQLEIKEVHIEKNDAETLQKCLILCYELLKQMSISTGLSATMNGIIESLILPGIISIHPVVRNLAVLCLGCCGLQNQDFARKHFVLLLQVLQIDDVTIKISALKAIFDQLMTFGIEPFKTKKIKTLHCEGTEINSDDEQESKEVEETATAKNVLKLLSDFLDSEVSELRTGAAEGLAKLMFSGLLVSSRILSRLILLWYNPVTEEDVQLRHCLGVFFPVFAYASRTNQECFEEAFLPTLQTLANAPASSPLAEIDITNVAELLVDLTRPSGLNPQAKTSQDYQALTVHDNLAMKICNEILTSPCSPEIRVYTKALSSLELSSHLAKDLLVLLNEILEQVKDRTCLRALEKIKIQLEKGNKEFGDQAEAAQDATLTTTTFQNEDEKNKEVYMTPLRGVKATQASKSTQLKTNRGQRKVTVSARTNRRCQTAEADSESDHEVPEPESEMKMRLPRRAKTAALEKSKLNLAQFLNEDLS
UniProt Q330K2: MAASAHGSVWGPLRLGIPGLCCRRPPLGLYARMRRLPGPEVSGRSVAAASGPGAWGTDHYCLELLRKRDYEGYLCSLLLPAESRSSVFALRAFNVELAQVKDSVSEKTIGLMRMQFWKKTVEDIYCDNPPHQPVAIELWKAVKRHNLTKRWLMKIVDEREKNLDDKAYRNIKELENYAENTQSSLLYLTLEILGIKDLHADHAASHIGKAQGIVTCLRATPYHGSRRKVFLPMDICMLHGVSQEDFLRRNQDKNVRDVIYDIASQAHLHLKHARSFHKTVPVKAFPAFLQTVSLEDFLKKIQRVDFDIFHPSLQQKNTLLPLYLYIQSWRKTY
UniProt Q9GZM8: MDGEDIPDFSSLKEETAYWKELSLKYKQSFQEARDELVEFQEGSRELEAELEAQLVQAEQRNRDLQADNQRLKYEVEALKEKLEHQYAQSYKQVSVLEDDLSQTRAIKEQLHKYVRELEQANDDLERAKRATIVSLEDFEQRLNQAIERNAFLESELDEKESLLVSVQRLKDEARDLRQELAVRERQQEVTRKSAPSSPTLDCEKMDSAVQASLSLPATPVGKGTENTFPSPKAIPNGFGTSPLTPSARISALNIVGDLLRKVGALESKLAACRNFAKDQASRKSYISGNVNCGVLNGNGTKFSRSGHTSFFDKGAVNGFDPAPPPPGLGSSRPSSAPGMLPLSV
UniProt P17568, whole entry, looked up: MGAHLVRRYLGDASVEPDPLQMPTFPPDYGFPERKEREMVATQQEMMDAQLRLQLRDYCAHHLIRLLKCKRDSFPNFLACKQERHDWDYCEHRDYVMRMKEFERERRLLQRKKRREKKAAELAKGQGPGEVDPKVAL
UniProt O00483, whole entry, looked up: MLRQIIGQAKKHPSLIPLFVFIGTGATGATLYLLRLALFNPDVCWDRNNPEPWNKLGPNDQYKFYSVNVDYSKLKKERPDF
UniProt Q9UK23: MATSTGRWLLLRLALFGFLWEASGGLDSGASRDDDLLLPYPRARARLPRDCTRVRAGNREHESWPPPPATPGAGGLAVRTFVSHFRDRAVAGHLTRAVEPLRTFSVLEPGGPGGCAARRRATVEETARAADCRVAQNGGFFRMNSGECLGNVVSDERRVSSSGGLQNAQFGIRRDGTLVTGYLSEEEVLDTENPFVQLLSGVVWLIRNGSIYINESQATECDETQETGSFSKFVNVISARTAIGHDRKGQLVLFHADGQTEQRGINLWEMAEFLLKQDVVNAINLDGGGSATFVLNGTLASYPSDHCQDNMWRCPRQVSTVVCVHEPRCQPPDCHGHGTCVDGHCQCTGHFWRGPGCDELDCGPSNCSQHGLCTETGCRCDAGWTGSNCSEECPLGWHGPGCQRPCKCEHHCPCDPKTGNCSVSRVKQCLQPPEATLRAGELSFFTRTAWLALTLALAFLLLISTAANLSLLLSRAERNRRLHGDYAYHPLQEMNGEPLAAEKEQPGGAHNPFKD
UniProt O75438, whole entry, looked up: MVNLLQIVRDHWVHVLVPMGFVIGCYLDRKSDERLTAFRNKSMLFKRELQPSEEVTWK
NBDY, A0A0U1RRE5, UniProt A0A0U1RRE5, whole entry, looked up: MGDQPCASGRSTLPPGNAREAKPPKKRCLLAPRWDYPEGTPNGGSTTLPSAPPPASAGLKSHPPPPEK
UniProt Q9NR45: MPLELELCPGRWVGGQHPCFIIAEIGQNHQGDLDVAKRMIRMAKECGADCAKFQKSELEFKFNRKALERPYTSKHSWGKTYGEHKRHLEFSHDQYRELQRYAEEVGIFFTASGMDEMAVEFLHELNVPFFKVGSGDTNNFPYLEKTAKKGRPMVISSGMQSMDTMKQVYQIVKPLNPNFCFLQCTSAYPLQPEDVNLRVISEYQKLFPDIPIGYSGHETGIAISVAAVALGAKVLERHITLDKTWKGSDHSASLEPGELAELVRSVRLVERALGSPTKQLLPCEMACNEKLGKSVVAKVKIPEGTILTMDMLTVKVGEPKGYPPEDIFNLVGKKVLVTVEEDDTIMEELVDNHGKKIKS

Columns and labels:
Assay in all cases: log2 fold change, soluble protein after heating vs DMSO (PISA); higher = thermal stabilisation; K562 cells, 10 uM, 30 min; active = over 0.2 and 3.5 SD of the protein, either way, in both replicates (recomputed)
erlotinib = compound: C#Cc1cccc(Nc2ncnc3cc(OCCOC)c(OCCOC)cc23)c1 [erlotinib]
How it was run: (§1)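 K562 cells (2×10^6 cells/mL) were treated with 10 μM compound for 30 min, and aliquots were heated for 3 min over 48°C-58°C. Pooled aliquots were extracted in PBS with 0.5% NP-40 at 4°C, and the supernatant after 21,000xg for 90 min was measured by TMTpro 16plex LC-MS/MS with channel sums equalised. Reported thermal stability, relative to control samples and from duplicates, is a log2 fold change.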

[1] = compound: C/C(=N\NC(=O)C1=CC(=CC=C1)S(=O)(=O)N2CCOCC2)/C3=C(C=CC(=C3)Cl)O
How it was run: as §1

[2] = compound: C1=CC(=C(C=C1Cl)C2=NC3=NC=CN=C3C(=N2)NC4=CC=NC=C4)F
How it was run: as §1

[3] = compound: C1=CC(=CC=C1C2=NC3=C(N2)C=C(C=C3)C(=O)N)OC4=CC=C(C=C4)Cl
How it was run: as §1

[4] = compound: C1=CC2=C(C=CC(=C2)/C=C\3/C(=O)NC(=NCC4=CC=CS4)S3)N=C1
How it was run: as §1

[5] = compound: C1=CC2=NC=CN=C2C=C1/C=C/3\C(=O)NC(=O)S3
How it was run: as §1

[6] = compound: C1=CC=C(C=C1)C2=NC(=C(N2)C3=CC=NC=C3)C4=CC(=C(C=C4)Cl)O
How it was run: as §1

[7] = compound: C1=CC=C2C(=C1)C3=NNC4=CC=CC(=C43)C2=O
How it was run: as §1

[8] = compound: C1CCN(C1)C(=O)NC2=CC=CC(=C2)NC3=NC=C(C(=N3)NCCC4=CN=CN4)Br
How it was run: as §1

[9] = compound: C1CN(CCC1(CC2=CC=C(C=C2)Cl)N)C3=NC=NC4=C3C=CN4
How it was run: as §1

IRAK-1-4 Inhibitor I = compound: C1COCCN1CCN2C3=CC=CC=C3N=C2NC(=O)C4=CC(=CC=C4)[N+](=O)[O-] [IRAK-1-4 Inhibitor I]
How it was run: as §1

ibrutinib = compound: C=CC(=O)N1CCC[C@@H](n2nc(-c3ccc(Oc4ccccc4)cc3)c3c(N)ncnc32)C1 [ibrutinib]
How it was run: as §1

[10] = compound: CC(=O)c1cnc2ccc(-c3cc(Cl)c(O)c(Cl)c3)nc2c1N[C@H]1CC[C@H](CN(C)C)CC1
How it was run: as §1

ralimetinib = compound: CC(C)(C)Cn1c(N)nc2ccc(-c3[nH]c(C(C)(C)C)nc3-c3ccc(F)cc3)nc21 [ralimetinib]
How it was run: as §1

[11] = compound: CC(C)(O)CC(=O)NCCn1ccc2ncnc(Nc3ccc(Oc4cccc(C(F)(F)F)c4)c(Cl)c3)c21
How it was run: as §1

[12] = compound: CC(C)C1=C2N=C(C=C(N2N=C1)NCC3=CC=CC=C3)NCCCCCCN
How it was run: as §1

[13] = compound: CC(C)C[C@@H](C=O)NC(=O)[C@H](CC(C)C)NC(=O)[C@H](CC(C)C)NC(=O)OCc1ccccc1
How it was run: as §1

pinometostat = compound: CC(C)N(C[C@H]1O[C@@H](n2cnc3c(N)ncnc32)[C@H](O)[C@@H]1O)[C@H]1C[C@@H](CCc2nc3cc(C(C)(C)C)ccc3[nH]2)C1 [pinometostat]
How it was run: as §1

[14] = compound: CC1=C(C(CC(=O)N1)C2=CC=C(C=C2)C(F)(F)F)C(=O)NC3=C(C=C4C(=C3)C=NN4)F
How it was run: as §1

[15] = compound: CC1=C(C2=C(C=C1)C(=O)C3=CC=CC=C3N2CCCN)C
How it was run: as §1

Measured: log2 fold change

NAGLU (UniProt P54802)
inactive: erlotinib -0.027 | [1] 0.062 | [2] 0.027 | [3] 0.008 | [4] -0.103 | [5] 0.009 | [6] -0.004 | [7] 0.129 | [8] -0.045 | [9] 0.013 | IRAK-1-4 Inhibitor I 0.066 | ibrutinib 0.055 | [10] 0.121 | ralimetinib 0.001 | [11] 0.114 | [12] -0.012 | [13] -0.054 | pinometostat 0.046 | [14] -0.005 | [15] 0.013

NDST2 (UniProt P52849)
inactive: erlotinib -0.085 | [1] -0.07 | [2] -0.021 | [3] 0.05 | [4] 0.033 | [5] 0.135 | [6] -0.039 | [7] -0.04 | [8] -0.028 | [9] 0.002 | IRAK-1-4 Inhibitor I -0.034 | ibrutinib -0.153 | [10] -0.119 | ralimetinib 0.024 | [11] 0.013 | [12] -0.103 | [13] 0.102 | pinometostat 0.048 | [14] -0.041 | [15] -0.01

NDUFS5 (UniProt O43920)
inactive: erlotinib 0.039 | [1] 0.001 | [2] 0.017 | [3] -0.031 | [4] 0.01 | [5] -0.006 | [6] -0.029 | [7] -0.045 | [8] 0.005 | [9] 0.01 | IRAK-1-4 Inhibitor I 0.057 | ibrutinib 0.02 | [10] -0.027 | ralimetinib -0.057 | [11] -0.009 | [12] -0.053 | [13] 0.026 | pinometostat 0.02 | [14] 0.012 | [15] 0.003

NCL (UniProt P19338)
active: [15] -0.891
inactive: erlotinib -0.154 | [1] -0.231 | [2] -0.723 | [3] -0.012 | [4] -0.109 | [5] -0.017 | [6] -0.112 | [7] 0.061 | [8] 0.037 | [9] -0.148 | IRAK-1-4 Inhibitor I -0.144 | ibrutinib 0.034 | [10] 0.118 | ralimetinib 0.166 | [11] 0.119 | [12] 0.07 | [13] 0.121 | pinometostat 0.4

NAGK isoform 2 (UniProt Q9UJ70)
inactive: erlotinib -0.006 | [1] -0.029 | [2] 0.022 | [3] 0.022 | [4] 0.054 | [5] -0.021 | [6] -0.024 | [7] -0.005 | [8] 0.008 | [9] 0.029 | IRAK-1-4 Inhibitor I 0.042 | ibrutinib 0.005 | [10] -0.002 | ralimetinib -0.026 | [11] 0.061 | [12] 0.045 | [13] -0.003 | pinometostat -0.033 | [14] -0.048 | [15] 0.027

NCAPG (UniProt Q9BPX3)
inactive: erlotinib -0.007 | [1] 0.114 | [2] 0.013 | [3] -0.03 | [4] 0.005 | [5] 0.002 | [6] 0.027 | [7] 0.043 | [8] -0.044 | [9] -0.104 | IRAK-1-4 Inhibitor I -0.092 | ibrutinib -0.033 | [10] 0.084 | ralimetinib 0.038 | [11] -0.126 | [12] -0.197 | [13] -0.005 | pinometostat -0.003 | [15] 0.016

NDUFAF6 (UniProt Q330K2)
inactive: erlotinib 0.028 | [1] -0.009 | [2] 0.059 | [3] 0.058 | [4] 0.071 | [5] 0.12 | [6] 0.065 | [7] -0.051 | [8] 0.049 | [9] 0.074 | IRAK-1-4 Inhibitor I 0.129 | ibrutinib -0.044 | [10] -0.107 | ralimetinib 0.039 | [11] -0.214 | [12] -0.235 | [13] 0.083 | pinometostat -0.132 | [15] -0.109

NEB isoform 3 (UniProt P20929)
inactive: erlotinib -0.063 | [1] 0.03 | [2] -0.027 | [3] -0.036 | [4] 0.048 | [5] 0.048 | [6] 0.017 | [7] -0.002 | ibrutinib 0.022 | [10] -0.085 | ralimetinib -0.009 | [11] 0.002 | [12] 0.106 | [13] 0.063 | [14] 0.027

2 neighbouring records already listed, quoted:
NAGLU (UniProt P54802)
inactive: erlotinib -0.027 | [1] 0.062 | [2] 0.027 | [3] 0.008 | [4] -0.103 | [5] 0.009 | [6] -0.004 | [7] 0.129 | [8] -0.045 | [9] 0.013 | IRAK-1-4 Inhibitor I 0.066 | ibrutinib 0.055 | [10] 0.121 | ralimetinib 0.001 | [11] 0.114 | [12] -0.012 | [13] -0.054 | pinometostat 0.046 | [14] -0.005 | [15] 0.013

NDST2 (UniProt P52849)
inactive: erlotinib -0.085 | [1] -0.07 | [2] -0.021 | [3] 0.05 | [4] 0.033 | [5] 0.135 | [6] -0.039 | [7] -0.04 | [8] -0.028 | [9] 0.002 | IRAK-1-4 Inhibitor I -0.034 | ibrutinib -0.153 | [10] -0.119 | ralimetinib 0.024 | [11] 0.013 | [12] -0.103 | [13] 0.102 | pinometostat 0.048 | [14] -0.041 | [15] -0.01

The list goes on:

NDEL1 isoform 2 (UniProt Q9GZM8)
inactive: erlotinib 0.021 | [1] 0.066 | [2] 0.041 | [3] 0 | [4] 0.093 | [5] 0.033 | [6] -0.07 | [7] -0.036 | [8] 0.035 | [9] -0.006 | ibrutinib -0.056 | [10] -0.139 | ralimetinib -0.062 | [11] -0.104 | [12] -0.026 | [13] 0.071 | [14] -0.008 | [15] 0.051

NDUFB7 (UniProt P17568)
inactive: erlotinib -0.027 | [1] 0.015 | [2] 0.038 | [3] 0.04 | [4] -0.011 | [5] 0.061 | [6] 0.031 | [7] -0.007 | [8] 0.037 | [9] 0.041 | IRAK-1-4 Inhibitor I 0.012 | ibrutinib 0.008 | [10] 0.007 | ralimetinib 0.079 | [11] -0.034 | [12] -0.002 | [13] -0.055 | pinometostat -0.017 | [15] 0.004

NA, A0A0B4J2A0
inactive: erlotinib -0.037 | [1] 0.07 | [2] 0.065 | [3] -0.009 | [4] 0.037 | [5] 0.038 | [6] 0.108 | [7] 0.026 | [8] -0.055 | [9] -0.007 | IRAK-1-4 Inhibitor I 0.014 | ibrutinib -0.015 | [10] -0.072 | ralimetinib -0.023 | [11] -0.105 | [12] 0.044 | [13] 0.031 | pinometostat 0.018 | [15] 0.107

NDUFA4 (UniProt O00483)
inactive: erlotinib -0.134 | [1] 0.002 | [2] 0.258 | [3] 0.042 | [4] 0.047 | [5] 0.072 | [6] 0.038 | [7] 0.011 | [8] 0.086 | [9] -0.017 | IRAK-1-4 Inhibitor I 0 | ibrutinib -0.019 | [10] -0.024 | ralimetinib -0.098 | [11] -0.029 | [12] -0.018 | [13] -0.009 | pinometostat -0.013 | [15] 0.126

NAGPA (UniProt Q9UK23)
inactive: erlotinib 0.046 | [1] 0.023 | [2] 0.046 | [3] 0.056 | [4] 0.033 | [5] -0.018 | [7] -0.025 | [8] -0.013 | [9] 0.148 | IRAK-1-4 Inhibitor I -0.078 | ibrutinib 0.228 | [10] -0.014 | [11] 0.03 | [12] 0.112 | pinometostat 0.052 | [15] -0.062

NDUFB1 (UniProt O75438)
inactive: erlotinib -0.015 | [1] -0.016 | [2] 0.209 | [3] 0.053 | [4] -0.102 | [5] 0.039 | [7] 0.079 | [8] -0.05 | [9] -0.006 | IRAK-1-4 Inhibitor I 0.034 | ibrutinib 0.024 | [10] 0.06 | [11] -0.043 | [12] -0.052 | pinometostat 0.065 | [15] 0.158

NBDY, A0A0U1RRE5
inactive: erlotinib 0.157 | [1] -0.153 | [2] 0.391 | [3] -0.038 | [4] 0.033 | [5] -0.007 | [6] 0.08 | [7] 0.048 | [8] 0.288 | [9] -0.005 | ibrutinib 0.034 | [10] -0.083 | ralimetinib -0.001 | [11] -0.068 | [12] 0.244 | [13] -0.019 | [14] -0.007 | [15] 0.173

NANS (UniProt Q9NR45)
inactive: erlotinib -0.016 | [1] 0.031 | [2] 0.066 | [3] -0.022 | [4] 0.028 | [5] 0.023 | [6] 0.036 | [7] 0.02 | [8] 0.016 | [9] 0.022 | IRAK-1-4 Inhibitor I 0.091 | ibrutinib -0.034 | [10] -0.01 | ralimetinib 0.015 | [11] -0.043 | [12] -0.006 | [13] -0.036 | pinometostat 0 | [15] 0.065
